Assay results reported in PubChem BioAssay AID540276 (National Center for Advancing Translational Sciences (NCATS), 2011).
The whole screen tested about 300,000 compounds, of which about 5,400 (1.8%) were called active. Inconclusive results, whose numbers are uncertain, are shown with a selection of clear calls. Calls come from the whole dose curve; tested in HEK293 cells. Where the call is inconclusive, the potency comes from a doubtful curve fit.

Test: qHTS for inhibitors of binding or entry into cells for Marburg Virus
Conditions: Marburg virus pseudotyped entry inhibition, cell reporter; activity change, negative = inhibition: at 37.8 µM (top of the series) unless noted
% is set by controls: 0 for no effect and ±100 for the full control effect; potency is the fitted concentration of half-maximal effect.

| SMILES | Potency | activity change, negative = inhibition |
| --- | --- | --- |
| O=[N+]([O-])c1ccc(Cl)c2cccnc12 | inconclusive: 35.5 µM [inhibitor, single point] | – |
| COc1ccc(CCNC(=O)CCc2c(C)nc3c4c(C)cc(C)nc4nn3c2C)cc1OC | inactive | – |
| CC(C)(C)C(=O)Nc1ccc(C(=O)OC2CCCCC2)cc1 | inconclusive: 29.1 µM [inhibitor, single point] | – |
| O=C(CSc1ncn[nH]1)Nc1ccc(Cl)c(Cl)c1 | inactive | – |
| O=C(OCc1ccc(Br)cc1)c1cccc(-c2nnc(-c3ccccc3)o2)c1 | – | inconclusive: 37.6% [activator] |
| C=CCC12OC3(OC)CC1[C@H](C)[C@@H](c1ccccc1)C2[C@]3(O)CC=C (some centres not stated) | inactive | – |
| Cc1ccc(C(=O)/C=C/c2ccccc2)o1 | inactive | – |
| O=C1CSC(c2cccnc2)N1Cc1ccc(Cl)cc1Cl (configuration not stated) | inactive | – |
| O=C(NCC1CCCO1)c1ccc2c(=O)n(CC3CCCO3)c(=S)[nH]c2c1 (configuration not stated) | inactive | – |
| CC(C)(C)NS(=O)(=O)c1ccc(NS(=O)(=O)c2ccc(F)cc2)cc1 | inactive | – |
| O=C(Nc1nnc(C2CC2)s1)c1cc2ccccc2o1 | inconclusive: 1.26 µM [activator, full curve, poor fit] | – |
| Cc1[nH]nc2c1C(c1ccc3c(c1)OCO3)C(C#N)=C(N)O2 (configuration not stated) | inactive | – |
| O=C(NNC(=O)c1ccccc1Cl)c1cccs1 | inconclusive: 12.6 µM [activator, partial curve, poor fit] | – |
| CC(=O)N1CCN(CC(=O)Nc2ccc(C)c(S(=O)(=O)N(C)C)c2)CC1 | inconclusive: 35.5 µM [inhibitor, single point] | – |
| COc1cc(NC(=O)CN2C(=O)NC(c3ccccc3)(c3ccccc3)C2=O)c(C)cc1[N+](=O)[O-] | inconclusive: 0.461 µM [inhibitor, partial curve, poor fit] | – |
| Cc1cc(C)nc(-n2nc(C)cc2NC(=O)c2cccc(S(=O)(=O)N(C)C)c2)n1 | inactive | – |
| Cc1ccccc1C(=O)NCC(=O)Nc1ccccc1C(F)(F)F | inactive | – |
| N#C/C(=C\c1ccc(OCc2ccccc2)cc1)C(=O)Nc1ccc(C(=O)O)cc1 | inactive | – |
| O=C(CSc1nnc(NC2CCCCC2)s1)NN1C(=O)NC2(CCCCC2)C1=O | inconclusive: 4.47 µM [activator, single point] | – |
| O=C(CCN1C(=O)C2C3C=CC(C3)C2C1=O)Nc1ccccc1 (configuration not stated) | inactive | – |
| COc1ccc2oc(=N)c(C(=O)Nc3ccc(F)cc3)cc2c1 | inconclusive: 0.501 µM [activator, full curve, poor fit] | – |
| CC(C)(O)C#Cc1ccc(CN2CCCC(CO)(Cc3cccc(Cl)c3)C2)cc1 (configuration not stated) | inconclusive: 9.2 µM [inhibitor, partial curve, poor fit] | – |
| O=C(CCCc1nc(-c2ccc(Cl)cc2)no1)NC1CCCCC1 | inconclusive: 10 µM [inhibitor, partial curve] | – |
| CN(CC1CCCN(CCc2ccc(Cl)cc2)C1)C(=O)CC(F)(F)F (configuration not stated) | inconclusive: 2.24 µM [inhibitor, partial curve] | – |

Copied from the list.
In Potency, `O=C(Nc1nnc(C2CC2)s1)c1cc2ccccc2o1` has inconclusive: 1.26 µM [activator, full curve, poor fit]
In Potency, `O=C(CSc1ncn[nH]1)Nc1ccc(Cl)c(Cl)c1` has inactive

Remaining list, next part.

| SMILES | Potency | activity change, negative = inhibition |
| --- | --- | --- |
| Cc1ccc(N2C(=O)C3CCCN3C2=S)cc1 (configuration not stated) | inconclusive: 7.94 µM [inhibitor, partial curve, poor fit] | – |
| COc1ccc(N2CCN(C(CNS(=O)(=O)c3ccc(C)cc3)c3ccccc3)CC2)cc1 (configuration not stated) | inconclusive: 35.5 µM [inhibitor, single point] | – |
| CCn1cc(/C=C(\NC(=O)c2ccc(OC)cc2)C(=O)NCCCn2ccnc2)c2ccccc21 | inactive | – |
| O=C(NC(=S)N(CCc1ccccc1)CCc1ccccc1)c1ccco1 | inconclusive: 8.91 µM [inhibitor, partial curve, poor fit] | – |
| O=C(CCNC(=O)c1ccco1)NCCc1c[nH]c2ccccc12 | inactive | – |
| COc1ccc(/C(C)=N/NC(=O)CNC(=O)c2cccnc2)cc1OC | inconclusive: 31.6 µM [activator, single point] | – |
| Nc1nonc1NC(=O)CSc1nc2ccccc2s1 | inactive | – |
| CN1CCCC(CC2Oc3ccccc3Sc3ccccc32)C1 (configuration not stated) | inconclusive: 11.2 µM [inhibitor, partial curve, poor fit] | – |
| CCc1ccc(NC(=O)c2noc3c2CCC3)cc1 | inactive | – |
| CCc1ccc(C(=O)c2cn(CC(=O)Nc3ccc4c(c3)OCCO4)c3ccc(F)cc3c2=O)cc1 | inactive | – |
| Cc1ccc(NCc2cccn2-c2nnc(N3CCC(C(=O)NCCc4ccc(Cl)cc4)CC3)s2)cc1 | inactive | – |
| CCOC(=O)N1CCN(CC(O)COc2cc(C)cc(C)c2)CC1 (configuration not stated) | inconclusive: 3.16 µM [activator, single point] | – |
| CCn1cnc2cc(NCc3nc4ccccc4n3Cc3ccccc3)ccc21 | inconclusive: 10 µM [inhibitor, single point] | – |
| O=C(Nc1ccc(Br)cc1F)c1ccc2c(c1)OCCO2 | active: 6.31 µM | – |
| Cc1ccccc1OCC(=O)NNC(=S)NC(=O)c1ccco1 | inconclusive: 20.6 µM [inhibitor, partial curve, poor fit] | – |
| CCc1ccccc1NC(=O)CN(C)C(=O)Cn1ncc(Cl)c(Cl)c1=O | inconclusive: 3.16 µM [inhibitor, full curve] | – |
| O=C(Cc1ccc(Cl)cc1)Nc1ccc2c(c1)C(=O)NC2=O | inconclusive: 7.94 µM [inhibitor, partial curve, poor fit] | – |
| COc1ccccc1NC(=S)N(Cc1cccnc1)Cc1ccccc1Cl | inactive | – |
| COc1c(F)c(F)c(C(=O)Nc2ccc(N3CCN(Cc4ccccc4)CC3)cc2)c(F)c1F | inconclusive: 32.6 µM [inhibitor, partial curve, poor fit] | – |
| COc1cccc(OCCn2cc(/C=N/NC(=O)c3ccncc3)c3ccccc32)c1 | inconclusive: 6.31 µM [activator, single point] | – |
| O=S(=O)(c1ccc(F)cc1)n1ccc2cccnc21 | inactive | – |
| CCCCC(=O)NC(c1cccc([N+](=O)[O-])c1)c1c(OC(C)=O)ccc2ccccc12 (configuration not stated) | inactive | – |
| Cc1nc(Nc2c(Cl)cccc2Cl)sc1C(=O)Nc1ccccc1 | inconclusive: 3.16 µM [activator, single point] | – |
| Cc1cccc(N2CCN(C(c3ccccc3)c3nnnn3CC3CCCO3)CC2)c1C (configuration not stated) | inconclusive: 20 µM [inhibitor, single point] | – |

Part of the list above, with tabs.
SMILES	Potency	activity change, negative = inhibition
COc1ccc(N2CCN(C(CNS(=O)(=O)c3ccc(C)cc3)c3ccccc3)CC2)cc1 (configuration not stated)	inconclusive: 35.5 µM [inhibitor, single point]	–
CCn1cc(/C=C(\NC(=O)c2ccc(OC)cc2)C(=O)NCCCn2ccnc2)c2ccccc21	inactive	–
O=C(NC(=S)N(CCc1ccccc1)CCc1ccccc1)c1ccco1	inconclusive: 8.91 µM [inhibitor, partial curve, poor fit]	–
O=C(CCNC(=O)c1ccco1)NCCc1c[nH]c2ccccc12	inactive	–
COc1ccc(/C(C)=N/NC(=O)CNC(=O)c2cccnc2)cc1OC	inconclusive: 31.6 µM [activator, single point]	–

The list continues.

| SMILES | Potency | activity change, negative = inhibition |
| --- | --- | --- |
| CC(C)Oc1ccc(/C=C/C(=O)NCC2COc3ccccc3O2)cc1 (configuration not stated) | inconclusive: 10 µM [inhibitor, partial curve, poor fit] | – |
| C=CCn1c(SCC(=O)NC2CCCCC2)nnc1-c1ccccn1 | inactive | – |
| COc1ccc(C(=O)Nc2c(N)nc(SCC(=O)NCC3CCCO3)[nH]c2=O)cc1OC (configuration not stated) | inconclusive: 0.562 µM [inhibitor, single point] | – |
| Cc1nc(N2CCN(Cc3ccc(Cl)cc3)CC2)c2oc3ccccc3c2n1 | inconclusive: 12.6 µM [inhibitor, partial curve, poor fit] | – |
| COc1ccc2c(c1)c(CC(=O)Nc1ccc(C)cc1)c(C)n2C(=O)c1ccc(Cl)cc1 | inconclusive: 22.4 µM [inhibitor, single point] | – |
| COc1cc(NC(=O)Cn2c(=O)n(CC3CCC(C(=O)NCCc4ccccc4)CC3)c(=O)c3ccccc32)cc(OC)c1 (configuration not stated) | inconclusive: 17.8 µM [activator, single point] | – |
| [O-]c1n[n+](-c2ccc(Cl)cc2Cl)cc2ccccc12 | inconclusive: 12.6 µM [inhibitor, single point] | – |
| CC1CCC(NC(=O)C(=O)Nc2ccc3c(c2)OCO3)CC1 (configuration not stated) | inconclusive: 0.562 µM [activator, full curve, poor fit] | – |
| O=C(Nc1ccncc1)C1CCN(S(=O)(=O)c2ccccc2C(F)(F)F)CC1 | inconclusive: 15.8 µM [inhibitor, single point] | – |
| CC/C(=N/Nc1ccccc1Cl)c1cnnc(-c2ccccc2)n1 | inactive | – |
| O=C(c1cnc2n(c1=O)CCS2)N(C1CCCCC1)C1CCCCC1 | inconclusive: 16.4 µM [activator, partial curve] | – |
| CN1CCc2c(c3c(n2C)CCN(C)[C@@H]3c2cccnc2)[C@H]1c1cccnc1 | inactive | – |
| CCOc1ccccc1C1CC(=O)Nc2c1c(=O)n(C)c1ncnn21 (configuration not stated) | inactive | – |
| CCc1nn(CC(=O)NC2CC2)c(=O)c2cc3c(OC)cccc3n12 | inactive | – |
| COc1cccc(C(=O)N2CCN(CCCc3ccccc3)CC2)c1OC | inactive | – |
| CC(C)NC(=O)NC1N=NC(Nc2ccc(Cl)cc2)=N1 (configuration not stated) | inactive | – |
| O=C(Nc1ccc(Cl)cc1)[C@@H]1[C@@H]2C(=O)N(c3cccc(F)c3)C(=O)[C@@H]2[C@H]2C=CC=NN21 | inactive | – |
| COCCNC(=O)C(c1ccc(O)cc1)N(Cc1ccco1)C(=O)CCC(=O)Nc1nccs1 (configuration not stated) | inconclusive: 0.112 µM [activator, partial curve, poor fit] | – |
| O=C(O)/C=C\C(=O)Nc1ccccc1C(=O)NC1CCCCC1 | inconclusive: 22.4 µM [activator, single point] | – |
| O=C(COc1ccc(F)cc1)NCC1CCCO1 (configuration not stated) | inactive | – |
| Cc1ccc(CNC(=O)c2ccc([N+](=O)[O-])o2)cc1 | inconclusive: 3.16 µM [inhibitor, full curve, poor fit] | – |
| C#CCN1C(=O)CC[C@@]23C1=NC(C(=O)OC)=C(C(=O)OC)[C@@H]2N(C)c1ccccc13 | inconclusive: 0.596 µM [activator, partial curve, poor fit] | – |
| COc1cccc(C(C(=O)NC2CCCC2)N(Cc2ccc(C)cc2)C(=O)c2ccco2)c1OC (configuration not stated) | inconclusive: 35.5 µM [inhibitor, single point] | – |
| CCCCn1c(N)nc2ccccc21 | inconclusive: 25.9 µM [inhibitor, single point] | – |
